Experimental data taken from paper doi:10.1101/2023.01.30.526200.
These are yes or no findings as the source states them, for the method shown. In cells and extracts the contact can be indirect. Some results given as binding are weak or reduced against the parent protein; the word gives no strength. Tags and fused reporters may be left off the sequences shown.

Target: BKPyV agnoprotein (GFP-agnoprotein and GST-agnoprotein, co-expressed in HEK293 cells) (BK polyomavirus (BKPyV)) (UniProt P03085)
Experiment: pull-down

B1: BKPyV agnoprotein (GFP-agnoprotein and GST-agnoprotein, co-expressed in HEK293 cells) (protein, UniProt P03085 1-66)
chain: MVLRQLSRQASVKVGKTWTGTKKRAQRIFIFILELLLEFCRGEDSVDGKNKSTTALPAVKDSVKDS
B1 was tested. Which binding did it give?
Its binding is “binds”.
